US20030087315A1 (MCP HAHNEMANN UNIVERSITY, published 2003)

How the values were obtained:
[1] = target: type I collagen; test: phage display panning, specifically-binding particle; cycles: Type I Collagen x3; eluent pH 2.2 buffer; 10 isolated particles
[2] = target: type I collagen; test: phage display panning, specifically-binding particle; cycles: Type I Collagen, α1-776/796, Type I Collagen; eluent pH 2.2 buffer; 5 isolated particles
[3] = target: type I collagen; test: phage display panning, specifically-binding particle; cycles: Type I Collagen, α1-776/796, Type I Collagen; eluent pH 2.2 buffer; 1 isolated particle
[4] = target: type I collagen; test: phage display panning, specifically-binding particle; cycles: Type I Collagen x3; eluent α1-776/796; 10 isolated particles
[5] = target: type I collagen; test: phage display panning, specifically-binding particle; cycles: α1-776/796, Type I Collagen, α1-776/796; eluent pH 2.2 buffer; 2 isolated particles
[6] = target: type I collagen; test: phage display panning, specifically-binding particle; cycles: α1-776/796, Type I Collagen, α1-776/796; eluent pH 2.2 buffer; 4 isolated particles
[7] = target: type I collagen; test: phage display panning, specifically-binding particle; cycles: α1-776/796, Type I Collagen, α1-776/796; eluent pH 2.2 buffer; 1 isolated particle

B1: phage-displayed peptide … (peptide)
peptide: LIQPPRYSTTVS
- binding [1]: binds
- binding [2]: binds

B2: phage-displayed peptide … (peptide)
peptide: SHPWNAQRELSV
- binding [3]: binds

B3: phage-displayed peptide … (peptide)
peptide: TMATMFTRDLSN
- binding [3]: binds

B4: phage-displayed peptide … (peptide)
peptide: SHALPLTWSTAA
- binding [4]: binds

B5: phage-displayed peptide … (peptide)
peptide: TFWHLTPPRGYY
- binding [5]: binds

B6: phage-displayed peptide … (peptide)
peptide: NHVHRMHATPAY
- binding [6]: binds

B7: phage-displayed peptide … (peptide)
peptide: VHWWIPVSTGTA
- binding [5]: binds

B8: phage-displayed peptide … (peptide)
peptide: HSSLKLPNLSHR
- binding [7]: binds

No constants are given. Whether binding was seen depends on the method and setting. A result given as binding can be weak or reduced; the word gives no strength.
